Measurements published in PubChem BioAssay AID588497 (NMMLSC, 2011).
The whole screen tested about 360,000 compounds, of which about 780 (0.22%) were called active. The shares of active, inactive and inconclusive entries below differ from those in the screen. Cut-off read from the data, not from the text of the source: active = inhibition above about 35% (passing the limit was not always enough); inconclusive = no clear call, values can overlap the other calls.

Test system: Botulinum neurotoxin type F light chain protease (Clostridium botulinum)
Assay: BoNT/F light chain protease inhibitors, primary screen, biochemical, flow cytometry, MLPCN library (AID 588497); note: plate controls were buffer without enzyme for full effect and enzyme alone for no effect
Conditions: Multiplex microsphere protease cleavage assay, at 10 µM, active compounds read high

SMILES | inhibition
CCC(=O)N1N=C(c2ccc(Cl)cc2)CC1c1ccco1 (stereo not drawn) | inconclusive: 24.1%
CC(=O)CSc1cc(-c2ccccc2)nc2ncnn12 | inconclusive: -0.3%
Cn1nnnc1SCC(=O)Nc1cc(C(=O)O)cc(C(=O)O)c1 | inactive: -5.2%
CCOC(=O)c1ccc(NS(=O)(=O)c2c(C)nc3sccn3c2=O)cc1 | inactive: -4.3%
Cc1sc2nc(SCc3ccc(C(=O)O)cc3)n(Cc3ccco3)c(=O)c2c1C | inactive: -0.1%
Cc1ccc(C(=O)CC(C(=O)O)n2cccn2)cc1 (stereo not drawn) | inconclusive: -5.3%
CCOC(=O)N1CCN(C(=O)/C(=C/c2ccc(OC)cc2)NC(=O)c2ccccc2)CC1 | inactive: -13%
CCN1C[C@@H]2[C@@H]3C(=O)N(C)C(=O)[C@@H]3[C@](Cc3ccccc3)(C1=O)N2C(=O)c1ccccc1 | inactive: -3.8%
Cc1ccc(CNC(=O)CCC(=O)Nc2nnc(C3CCCCC3)s2)cc1 | inconclusive: 8.5%
O=C(CN1CCN(Cc2ccccc2)CC1)N/N=C/c1ccccc1F | inconclusive: -80.9%
CCN(CC(=O)Nc1ccccc1C(F)(F)F)C(=O)CCSc1ccc(F)cc1 | inconclusive: -5.5%
Nn1c(=O)c2ccccc2n2c(SCc3ccccc3)nnc12 | inactive: -1.2%
Cn1cc(/C=C2\SC(=S)N(N3CCOCC3)C2=O)c2ccccc21 | inconclusive: 58.6%
CC(C)CC(=O)N1CCN(Cc2ccc3ccccc3c2)CC1 | inconclusive: -21.2%
Cn1c(=O)[nH]c(=O)c2c1nc(NC1CCCCC1)n2Cc1ccccc1 | inconclusive: -14.3%
Cc1cccc(C)c1NC(=O)CNC(=O)COC(=O)c1ccc(Cl)s1 | inconclusive: -11%
NC1=NC(c2ccc(Cl)cc2)n2c(nc3ccccc32)N1 (stereo not drawn) | inconclusive: -33.2%
CC1=C(C(=O)OC(C)C)C(c2cccc(F)c2)n2ncnc2N1 (stereo not drawn) | inactive: -2.8%
CCCn1nnc(NC(=S)NC(=O)c2ccc(-c3ccc(Br)cc3)o2)n1 | inconclusive: -11.8%
N#Cc1c(-c2ccccc2)ccn(Cc2cccc(Cl)c2)c1=O | inconclusive: -6.2%
COc1ccc(NC(=O)C(NC(=O)c2ccc(C)cc2)c2ccccc2)cc1 (stereo not drawn) | inconclusive: -16.1%
CNc1c(-n2cc(C(=O)OC)c(C(=O)OC)c2C(=O)OC)c(=O)n(C)c(=O)n1C | inconclusive: -0.7%
Cc1ccc(S(=O)(=O)N2C(=O)[C@@H]3Cc4ccccc4CN3C2=O)cc1 | inconclusive: -21.7%
Clc1ccc(/C=C/c2ncc[nH]2)c(Cl)c1 | active: 40.4%

SMILES | inhibition
COc1ccccc1N1CCN(C2CCCN(Cc3ccccc3OCCO)C2)CC1 (stereo not drawn) | inconclusive: 15%
O=[N+]([O-])c1ccc(N(c2ccccc2)c2ccccc2)cc1 | inactive: 24.2%
O=C(OCc1ccccc1)C1=NNC2C(=O)N(c3ccc(Br)cc3)C(=O)C12 (stereo not drawn) | inconclusive: 21.9%
O=C(CSc1ncn(-c2ccccc2)n1)Nc1ccc2c(c1)OCO2 | inactive: -12.5%
CSCCOC(=O)C1=C(C)NC(=O)NC1c1ccc2c(c1)OCO2 (stereo not drawn) | inconclusive: 29.5%
Cc1ccc2c(CC(=O)NNC(=O)c3ccccc3O)coc2c1 | inconclusive: 0.3%
CCOC(=O)c1cnn(-c2cccc(Cl)c2)c1N | inactive: -4.4%
CCCOCC(O)CC(Cc1ccccc1)C(=O)NN (stereo not drawn) | inconclusive: 16.2%
NC(=O)C1CCN(C(=S)NC2CC3C=CC2C3)CC1 (stereo not drawn) | inconclusive: -8.4%
CCC(C)c1ccc(NC(=O)N2CCOCC2)cc1 (stereo not drawn) | inconclusive: 9.7%
O=C(Nc1ccsc1C(=O)O)c1cccc(Oc2ccccc2)c1 | inconclusive: 11.1%
CN1CCN(CCCNC(=O)C2CC(=O)N(C3CCCCC3)C2)CC1 (stereo not drawn) | inactive: 0.4%
CC1CN(CC(=O)NCc2ccc(Cl)cc2)CC(C)O1 (stereo not drawn) | inactive: -19.1%
COc1cc(N=Nc2ccc3ccccc3c2)ccc1O | inconclusive: 3.7%
Brc1ccc(NC(c2ccccc2)c2ccncc2)cc1 (stereo not drawn) | inactive: -41.5%
COc1cccc(C(=O)NNC(=O)c2cccc(F)c2)c1 | inconclusive: 16.6%
CC1CCc2c(sc(/N=C/c3ccco3)c2C(N)=O)C1 (stereo not drawn) | inconclusive: -71.2%
CCOC(=O)C1CCN(C(=O)Nc2cccc(OC)c2)CC1 | inconclusive: 36%
CN1CCN(c2ccc(NC(=O)c3cc4ccccc4o3)cc2)CC1 | inconclusive: -24.9%
CC(CN1CCCC1)OC(=O)c1cccc(F)c1 (stereo not drawn) | inconclusive: 37.8%
O=C(c1ccc(Cl)nc1)N1CCC(Cc2ccccc2)CC1 | inactive: -4.6%
COCCCNC(=O)C1CCCN(S(=O)(=O)c2cccc3nsnc23)C1 (stereo not drawn) | inactive: 0.4%
COc1cc(/C=N/n2c(-c3cc(C)[nH]n3)n[nH]c2=S)cc(OC)c1OC | inconclusive: 62.6%
CC(C)(C)c1ccc(OCC(=O)Nc2ccncc2)cc1 | inconclusive: -12.8%

SMILES | inhibition
O=C1CC(c2ccccc2)Sc2ccccc2N1 (stereo not drawn) | inconclusive: -13.1%
O=C1NC(=O)/C(=C\c2ccc(OCc3ccccc3)cc2)S1 | inconclusive: -5.7%
CCOc1cc(-c2cc(-c3ccc(C)o3)nc(N)c2C#N)ccc1O | inactive: 1.2%
CCCN1C(=O)c2ccccc2NC1c1ccc(OC)cc1O (stereo not drawn) | inactive: -5.3%
Cc1ccc(CNC(=O)C2CCN(S(=O)(=O)c3c(C)noc3C)CC2)cc1 | inconclusive: 19%
CC(=O)Nc1ccc(N2C(=O)CC(N3CCN(Cc4ccc5c(c4)OCO5)CC3)C2=O)cc1 (stereo not drawn) | inconclusive: -14.3%
CCOC(=O)C(=CNc1ccc(N2CCOCC2)cc1)C(=O)OCC | inconclusive: 14.9%
O=C(CNS(=O)(=O)c1ccc(C(=O)N2CCOCC2)cc1)N1CCOCC1 | inactive: -6.1%
COCCCNC(=S)NNC(=O)c1csc(C)n1 | inconclusive: -70.3%
CCSc1nnc(N2C(=O)c3ccc(C(=O)c4ccc(C(=O)O)cc4)cc3C2=O)s1 | inconclusive: -21.3%
COc1ccc(CC2(CO)CCN(S(=O)(=O)c3sccc3C)CC2)cc1 | active: 37.9%
CC(C)C(c1nnnn1Cc1ccco1)N1CCN(C2CCCC2)CC1 (stereo not drawn) | inconclusive: -23.8%
Cc1cccc(C(=O)NC2CCN(S(=O)(=O)c3ccc(F)cc3)CC2)c1 | inconclusive: 4%
Cc1cc(C)nc(N/N=C/c2cn[nH]c2-c2ccccc2)n1 | inconclusive: 8.4%
Cc1n[nH]c(C)c1CCNC(=O)C1CCC(=O)N(CCc2cccc(F)c2)C1 (stereo not drawn) | active: 34.8%
CCOC(=O)Cn1c(=O)c2c(nc3n2CCN3Cc2ccccc2)n(C)c1=O | inconclusive: 0.2%
CCOC(=O)c1cc(-c2ccccc2)nc2c(O)cccc12 | inactive: -9.1%
O=C(NCC1CCN(S(=O)(=O)c2ccccc2)CC1)Nc1ccc(F)cc1F | inconclusive: 16.8%
O=C1NCCCC2c3c(cc(Br)c(O)c3Br)OC12N1CCOCC1 (stereo not drawn) | inactive: 8.9%
CCC(C)n1c(O)c(/C=N/Nc2nc3c(c(=O)n(C)c(=O)n3C)n2C)c(=O)[nH]c1=S (stereo not drawn) | inconclusive: -4%
c1ccc(CSc2nccc(-c3ccco3)n2)cc1 | inconclusive: -20.2%
Cc1ccc(-c2nnn(CC(=O)N3CCCCC3)n2)cc1 | inconclusive: 28.6%
COC(=O)c1ccc2nc(-c3ccc(C)cc3)c(CC3CCCCC3)n2c1 | inactive: -8%
COC(=O)C1SCCN1S(=O)(=O)c1ccc(Cl)cc1 (stereo not drawn) | inconclusive: -22.9%

SMILES | inhibition
Cc1ccc(S(=O)(=O)NC(=O)Nc2nc(-c3ccc(F)c(F)c3)cs2)cc1 | inconclusive: -3.8%
Cc1ccc(OCC(=O)NNC(=O)C(=O)N2CCCC2)c(C)c1 | inactive: 1%
CC(OC(=O)CCN=C1NS(=O)(=O)c2ccccc21)C(=O)NC1CCCCC1C (stereo not drawn) | inconclusive: 12.7%
CCOC(=O)C1(Cc2cccc(Cl)c2)CCCN(C(=O)CCNC(C)=O)C1 (stereo not drawn) | inconclusive: -20%
OCc1ccccc1OCCCN1CCC(Cc2ccccc2)CC1 | inconclusive: 11.4%
O=S(=O)(NC1CCN(S(=O)(=O)c2c(F)cccc2F)CC1)c1ccc2c(c1)OCCO2 | inactive: 3.5%
CCC(C)NC(=O)C1CCN(c2nc(C)cc(C)n2)CC1 (stereo not drawn) | inactive: 3.3%
Cc1cccc(-n2c(C)c(-c3ccccc3)[nH]c2=S)c1 | inconclusive: 35%
CC1=CSC2=NC(C(F)(F)F)(C(F)(F)F)NC(=O)N12 | inconclusive: 80.9%
COc1ccc(NC(=O)C2C(c3ccccc3)C2(Cl)Cl)c(OC)c1 (stereo not drawn) | inconclusive: 18.7%
O=C(Cc1ccccc1)NCCS(=O)c1ccc(Cl)cc1 (stereo not drawn) | inconclusive: 5.1%
COc1ccc(-c2noc(CCC(=O)NCc3cccnc3)n2)cc1OC | inactive: -14.6%
CS/C(=C\C(=O)c1ccco1)Nc1ccccc1Cl | inconclusive: 60%
FC(F)Oc1ccccc1NC(=S)NCCc1ccccc1 | inconclusive: -22.3%
CCOC(=O)C1C(=O)NC(c2ccccc2)=NC1c1ccc(C(C)C)cc1 (stereo not drawn) | inconclusive: -24.8%
CCOc1ccc(S(=O)(=O)Nc2c(C)n(C)n(-c3ccccc3)c2=O)cc1 | inconclusive: -2.8%
Cc1n[nH]c(=O)nc1Nc1ccc(O)cc1 | inactive: 2.3%
CCNC(=O)CN(c1ccc(C)cc1)S(=O)(=O)c1ccc(SC)cc1 | inconclusive: 5.6%
CCOC(=O)c1ccc(NC(=S)NCCc2ccc(OC)c(OC)c2)cc1 | inconclusive: 20.4%
O=C1CC2(CCN(C(=O)C3CC(=O)N(c4ccccc4)C3)CC2)Oc2ccccc21 (stereo not drawn) | inactive: 16%
CC1(C)C/C(=N\O)C(C(O)c2cccc([N+](=O)[O-])c2)C(C)(C)N1 (stereo not drawn) | inconclusive: 29.8%

3 entries already listed, ordered by heavy-atom count, falling:
SMILES | inhibition
OCc1ccccc1OCCCN1CCC(Cc2ccccc2)CC1 | inconclusive: 11.4%
COc1ccc(NC(=O)C2C(c3ccccc3)C2(Cl)Cl)c(OC)c1 (stereo not drawn) | inconclusive: 18.7%
Cc1cccc(-n2c(C)c(-c3ccccc3)[nH]c2=S)c1 | inconclusive: 35%
